Results from patent publication US12006503B2, “Fusion proteins and methods thereof” (The Trustees of Columbia University in the City of New York, priority 2012, dated 2024).
Some of these results come from one statement about several compounds together.

Columns and labels:
Assay type in all cases: cell-based, rat
[1] = test system: cells expressing FGFR1-TACC1; assay: MTT growth assay of Rat1A cells expressing FGFR1-TACC1 treated with FGFR inhibitors
[2] = test system: cells expressing FGFR3-TACC3; assay: MTT growth assay of Rat1A cells expressing FGFR3-TACC3 treated with FGFR inhibitors
[3] = test system: cells transduced with vector, FGFR3, TACC3 and the FGFR3-TACC3-K508M mutant; assay: MTT growth assay of control Rat1A cells treated with FGFR inhibitors

`COc1cc(CCc2cc(NC(=O)c3ccc(N4C[C@@H](C)N[C@@H](C)C4)cc3)n[nH]2)cc(OC)c1` [AZD4547] was tested, and the “concentration inhibiting cell growth” value [1] was under 10 nM, the “concentration inhibiting cell growth” value [2] was under 10 nM and the “concentration up to which ineffective on cell growth” value [3] was over 1 µM.
